Reference: publication PMC7568260, “In vitro reconstitution and characterization of pyruvate dehydrogenase and 2‐oxoglutarate dehydrogenase hybrid complex from Corynebacterium glutamicum” (MicrobiologyOpen, 2020)
No constants are given. Whether binding was seen depends on the method and setting. In cells and extracts the contact can be indirect. Some entries that bind do so weakly or less than the wild type. Blank lines part the entries; values can stand above or below the molecule they belong to.

Sequences of proteins named here, by UniProt entry; tags and fusion partners are left off.
UniProt P06959: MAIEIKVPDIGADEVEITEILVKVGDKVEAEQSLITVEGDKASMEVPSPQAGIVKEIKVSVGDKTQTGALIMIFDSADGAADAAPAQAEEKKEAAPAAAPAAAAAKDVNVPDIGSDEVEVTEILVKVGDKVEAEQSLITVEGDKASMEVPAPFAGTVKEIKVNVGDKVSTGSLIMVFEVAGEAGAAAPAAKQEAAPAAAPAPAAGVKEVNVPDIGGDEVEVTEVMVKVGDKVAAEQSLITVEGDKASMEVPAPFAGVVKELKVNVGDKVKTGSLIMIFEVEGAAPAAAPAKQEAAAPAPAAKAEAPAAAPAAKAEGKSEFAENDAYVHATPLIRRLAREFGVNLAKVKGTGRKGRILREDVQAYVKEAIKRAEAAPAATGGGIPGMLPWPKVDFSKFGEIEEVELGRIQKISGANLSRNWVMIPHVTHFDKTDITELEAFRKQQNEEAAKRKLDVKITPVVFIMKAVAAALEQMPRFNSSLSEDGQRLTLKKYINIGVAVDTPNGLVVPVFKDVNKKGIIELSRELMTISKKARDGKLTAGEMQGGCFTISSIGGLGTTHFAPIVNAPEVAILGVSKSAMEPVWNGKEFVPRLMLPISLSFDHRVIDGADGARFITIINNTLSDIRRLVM
UniProt P0AFG8: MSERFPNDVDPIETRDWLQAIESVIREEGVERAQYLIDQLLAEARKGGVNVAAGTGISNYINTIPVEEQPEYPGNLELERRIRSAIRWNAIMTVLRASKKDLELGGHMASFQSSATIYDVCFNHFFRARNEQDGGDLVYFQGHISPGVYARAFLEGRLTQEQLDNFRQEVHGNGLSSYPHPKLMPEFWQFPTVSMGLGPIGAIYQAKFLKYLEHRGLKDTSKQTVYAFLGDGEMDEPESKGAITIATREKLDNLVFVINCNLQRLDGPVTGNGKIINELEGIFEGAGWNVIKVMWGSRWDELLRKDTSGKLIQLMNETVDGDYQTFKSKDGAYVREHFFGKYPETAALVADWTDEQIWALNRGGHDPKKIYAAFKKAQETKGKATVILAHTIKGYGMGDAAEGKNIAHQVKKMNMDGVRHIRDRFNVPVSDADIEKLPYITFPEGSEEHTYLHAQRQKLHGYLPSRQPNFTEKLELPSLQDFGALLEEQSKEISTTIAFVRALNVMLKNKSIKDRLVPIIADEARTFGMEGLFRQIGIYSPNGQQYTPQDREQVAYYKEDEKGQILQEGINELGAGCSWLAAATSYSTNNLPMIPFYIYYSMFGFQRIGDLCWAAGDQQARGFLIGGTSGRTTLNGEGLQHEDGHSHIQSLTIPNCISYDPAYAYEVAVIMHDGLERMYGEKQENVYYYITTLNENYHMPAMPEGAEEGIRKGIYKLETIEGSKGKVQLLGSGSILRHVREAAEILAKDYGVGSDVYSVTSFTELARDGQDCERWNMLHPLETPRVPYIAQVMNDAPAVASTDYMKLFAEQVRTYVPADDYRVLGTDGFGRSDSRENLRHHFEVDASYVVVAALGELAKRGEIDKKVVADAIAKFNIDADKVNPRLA
UniProt P0A9P0: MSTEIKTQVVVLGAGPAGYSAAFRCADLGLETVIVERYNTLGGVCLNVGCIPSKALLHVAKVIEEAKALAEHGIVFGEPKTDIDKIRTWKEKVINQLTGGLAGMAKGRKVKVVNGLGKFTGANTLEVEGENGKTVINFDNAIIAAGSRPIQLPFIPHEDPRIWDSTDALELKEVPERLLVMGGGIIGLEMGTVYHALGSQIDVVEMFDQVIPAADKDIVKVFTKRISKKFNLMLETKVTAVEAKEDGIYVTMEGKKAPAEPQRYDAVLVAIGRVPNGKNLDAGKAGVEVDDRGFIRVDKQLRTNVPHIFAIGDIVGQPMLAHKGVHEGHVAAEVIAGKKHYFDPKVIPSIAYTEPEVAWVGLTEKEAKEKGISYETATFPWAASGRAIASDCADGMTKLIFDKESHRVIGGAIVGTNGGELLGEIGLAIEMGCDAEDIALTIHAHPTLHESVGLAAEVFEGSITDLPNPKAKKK

Legend:
[1] = target: E. coli AceF (E2p), endogenous (Escherichia coli (endogenous in DH5α)) (UniProt P06959); assay: co-sedimentation; E. coli DH5α cleared lysate on a 15%–45% sucrose density gradient (also 10%–30%, Figure A1) in 50 mM TES-NaOH pH 7.6, 36,000 rpm, 17 h, 4°C; fractions read by Western blot
[2] = target: T1, E. coli SucB (E2o), endogenous (Escherichia coli (endogenous in DH5α)) (UniProt P0AFG6); assay: as above
T1 sequence: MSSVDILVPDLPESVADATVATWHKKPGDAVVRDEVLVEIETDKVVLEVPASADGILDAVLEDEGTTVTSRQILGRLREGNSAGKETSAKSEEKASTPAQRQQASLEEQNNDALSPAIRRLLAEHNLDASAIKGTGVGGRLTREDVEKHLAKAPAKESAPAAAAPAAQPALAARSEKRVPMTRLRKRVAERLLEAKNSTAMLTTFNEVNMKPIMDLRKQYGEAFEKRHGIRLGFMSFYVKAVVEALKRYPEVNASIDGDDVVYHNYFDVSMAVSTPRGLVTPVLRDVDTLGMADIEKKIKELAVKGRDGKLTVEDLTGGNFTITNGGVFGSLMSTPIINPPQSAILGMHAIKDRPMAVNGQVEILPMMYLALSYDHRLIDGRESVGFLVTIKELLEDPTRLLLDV

binding [1]: binds
Molecule: E. coli AceE (E1p), endogenous (from UniProt P0AFG8 1-887) (enzyme)

binding [2]: binds | binding [1]: binds
Molecule: E. coli Lpd (E3), endogenous (from UniProt P0A9P0 1-474) (enzyme)

binding [2]: binds
B1: E. coli SucA (E1o), endogenous (enzyme, UniProt P0AFG3 1-933)
chain: MQNSALKAWLDSSYLSGANQSWIEQLYEDFLTDPDSVDANWRSTFQQLPGTGVKPDQFHSQTREYFRRLAKDASRYSSTISDPDTNVKQVKVLQLINAYRFRGHQHANLDPLGLWQQDKVADLDPSFHDLTEADFQETFNVGSFASGKETMKLGELLEALKQTYCGPIGAEYMHITSTEEKRWIQQRIESGRATFNSEEKKRFLSELTAAEGLERYLGAKFPGAKRFSLEGGDALIPMLKEMIRHAGNSGTREVVLGMAHRGRLNVLVNVLGKKPQDLFDEFAGKHKEHLGTGDVKYHMGFSSDFQTDGGLVHLALAFNPSHLEIVSPVVIGSVRARLDRLDEPSSNKVLPITIHGDAAVTGQGVVQETLNMSKARGYEVGGTVRIVINNQVGFTTSNPLDARSTPYCTDIGKMVQAPIFHVNADDPEAVAFVTRLALDFRNTFKRDVFIDLVCYRRHGHNEADEPSATQPLMYQKIKKHPTPRKIYADKLEQEKVATLEDATEMVNLYRDALDAGDCVVAEWRPMNMHSFTWSPYLNHEWDEEYPNKVEMKRLQELAKRISTVPEAVEMQSRVAKIYGDRQAMAAGEKLFDWGGAENLAYATLVDEGIPVRLSGEDSGRGTFFHRHAVIHNQSNGSTYTPLQHIHNGQGAFRVWDSVLSEEAVLAFEYGYATAEPRTLTIWEAQFGDFANGAQVVIDQFISSGEQKWGRMCGLVMLLPHGYEGQGPEHSSARLERYLQLCAEQNMQVCVPSTPAQVYHMLRRQALRGMRRPLVVMSPKSLLRHPLAVSSLEELANGTFLPAIGEIDELDPKGVKRVVMCSGKVYYDLLEQRRKNNQHDVAIVRIEQLYPFPHKAMQEVLQQFAHVKDFVWCQEEPLNQGAWYCSQHHFREVIPFGASLRYAGRPASASPAVGYMSVHQKQQQDLVNDALNVE
